Experimental data published in PubChem BioAssay AID624297 (National Center for Advancing Translational Sciences (NCATS), 2012).
Values joined by “and” are separate entries in the source; they are usually repeats but may differ in a detail not shown here. Equal entries are not always repeated. Hit rate of the full screen: of about 340,000 compounds, about 6,200 (1.8%) were called active. Inconclusive means that the source gave no clear call. Such entries were picked first, then a sample of the others. Calls come from the whole dose curve; as a rule, active = well fitted activation curve with a large enough effect; inconclusive = small, poorly fitted or top-dose-only effect; inactive = no such curve, though single readings can be large or run the other way. Potencies of inconclusive entries are doubtful fits and often do not repeat.
Potency is the fitted concentration of half-maximal effect.

Assay: A quantitative high throughput screen for small molecules that induce DNA re-replication in SW480 colon adenocarcinoma cells. Note: nearly all actives have a fitted effect of over 55% in size.
Conditions: Hoechst DNA content imaging, 48 h; series mostly up to 46.1 µM
Outline: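 Cells (250 per well) received 23 nL compound or DMSO by pin tool and were kept 48 hr at 37 C, 5% CO2. Nuclei were then stained with Hoechst for 40 min and scanned for DNA content.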
With `COc1ccc(NC(=S)N2CCN(C/C=C/c3ccccc3)CC2)c(OC)c1` the Potency was inconclusive: 16.4 µM [activator, single point]. With `Cc1snc(SCc2ccc(F)cc2)c1C#N` the Potency was inconclusive: 5.62 µM [activator, single point]. For `C/C(CCN1CCc2nc(-c3ccccc3)c(-c3ccccc3)cc2C1)=N\O[C@@H](C)c1cc(-c2c(C)cc(C)cc2C)no1`, the Potency was inconclusive: 0.0116 µM [activator, full curve, poor fit]. With `COc1ccc(/C=C2\SC(=O)N(CCNC(=O)Cn3[nH]c(=O)c4ccccc4c3=O)C2=O)cc1` the Potency was “inactive”. In the case of `C/C(Cl)=C\Cn1c(Nc2cccc(C)c2)nc2c1c(=O)n(C)c(=O)n2C`, the Potency is reported as inconclusive: 16.4 µM [activator, single point]. With `Cc1ccc(C(=O)NCCC2=CCCCC2)cc1S(=O)(=O)N1CCCCC1` the Potency was inconclusive: 16.4 µM [activator, partial curve, poor fit]. With `CC(=O)Nc1ccc(CCCCc2ccccc2)cc1` the Potency was inconclusive: 29.1 µM [activator, single point]. For `CN(C)c1ccc2nc3ccc(=[N+](C)C)cc-3sc2c1`, the Potency was inconclusive: 2.31 µM [activator, single point] and inconclusive: 841 nM [activator, full curve, poor fit]. With `COc1ccc(-c2cnnc(N/N=C/c3ccc(-c4ccc([N+](=O)[O-])cc4)o3)n2)cc1` the Potency was inconclusive: 0.82 µM [activator, full curve, poor fit]. With `COc1cc(/C=C/C(=O)N2CCC=CC2=O)cc(OC)c1OC` the Potency was inconclusive: 2.24 µM [activator, partial curve, poor fit]. For `O=c1cc(NCc2ccccc2)[nH]c(=O)[nH]1`, the Potency was “inactive”. In the case of `COc1ccc(-c2cc(=O)n(-c3nc4ccccc4[nH]3)[nH]2)cc1`, the Potency is reported as inconclusive: 25.9 µM [activator, single point]. In the case of `O=C(N/C(=C/c1ccccc1)C(=O)N1CCOCC1)c1ccc([N+](=O)[O-])cc1`, the Potency is reported as inconclusive: 29.1 µM [activator, single point]. With `CCN1CCN(S(=O)(=O)c2ccc(Cl)c(C(=O)NCc3ccco3)c2)CC1` the Potency was inconclusive: 18.4 µM [activator, single point]. In the case of `COc1cc2c(cc1OC)CN(Cc1ccc(F)cc1)CC2`, the Potency is reported as inconclusive: 29.1 µM [activator, single point]. In the case of `O=C1COc2ccc(S(=O)(=O)Nc3cccc(Cl)c3)cc2N1`, the Potency is reported as inconclusive: 0.082 µM [activator, full curve, poor fit]. For `COc1cccc2[nH]c3c(N4CCCCC4)ncnc3c12`, the Potency was “inactive”. For `COc1ccccc1NC(=O)C(=O)NNC(=O)c1ccco1`, the Potency was inconclusive: 23.1 µM [activator, single point]. For `CCCCn1c(N)c(N(CCOC)C(=O)c2cccc(S(=O)(=O)N3CCCCCC3)c2)c(=O)[nH]c1=O`, the Potency was “inactive”. In the case of `COc1ccc2nc(NC(=O)c3ccccc3O)sc2c1`, the Potency is reported as inconclusive: 0.231 µM [activator, partial curve, poor fit]. In the case of `O=C(CCc1nnc(CCCCc2ccccc2)o1)NCc1cc(F)ccc1F`, the Potency is reported as inconclusive: 29.1 µM [activator, single point]. In the case of `Cn1nccc1NC(=O)CSCC(=O)O`, the Potency is reported as “inactive”. In the case of `CCOc1ccc(NC(=O)CN(C)C(=O)c2cccnc2Sc2ccc(C)c(C)c2)cc1OCC`, the Potency is reported as inconclusive: 29.1 µM [activator, partial curve, poor fit]. With `CON(C)S(=O)(=O)c1cccc(C(=O)Oc2ccc(N(C)S(=O)(=O)c3ccccc3)cc2)c1` the Potency was inconclusive: 29.1 µM [activator, single point]. In the case of `O=[N+]([O-])c1cccc2ccc(/C=C/c3ccc(F)cc3)nc12`, the Potency is reported as inconclusive: 7.31 µM [activator, partial curve, poor fit]. With `FC(F)(F)c1cccc(Nc2nc(N3CCOCC3)nc(N3CCOCC3)n2)c1` the Potency was inconclusive: 0.116 µM [activator, full curve, poor fit]. In the case of `CCCCOC(=O)c1ccc(NC(C)=O)cc1`, the Potency is reported as “inactive”. For `COc1ccc2nc(NC(=O)C3CCN(S(=O)(=O)c4cccs4)CC3)sc2c1`, the Potency was “inactive”. With `CCCn1nc(NC(=O)C(C)(C)C)c2cc3cc(OC)ccc3nc21` the Potency was active: 20.6 µM. For `COc1ccc(/C(C)=N/NC(=O)CNC(=O)CCc2ccccc2)c(OC)c1`, the Potency was inconclusive: 20.6 µM [activator, single point]. With `O=C(NC1CC1)C1CCCN1S(=O)(=O)c1ccc2ccccc2c1` (stereo unspecified) the Potency was inconclusive: 29.1 µM [activator, single point]. With `Cc1[nH]c2c(C)cccc2c1CCNS(=O)(=O)c1cccc([N+](=O)[O-])c1` the Potency was “inactive”. For `COc1ccc(CCNC(=O)/C(C#N)=C2\N=C(NC(=O)c3ccco3)c3ccccc32)cc1`, the Potency was inconclusive: 20.6 µM [activator, single point]. For `O=C(Nc1ccccc1C(=O)NCCCN1CCOCC1)c1ccc(F)cc1`, the Potency was inconclusive: 0.103 µM [activator, full curve, poor fit]. In the case of `CCOCCCNC(=S)N1CCCN(c2nc3c(C)c(C)ccc3cc2C#N)CC1`, the Potency is reported as inconclusive: 25.9 µM [activator, single point]. For `CN(CC(=O)Nc1cccc(F)c1)C(=O)c1ccc(C(=O)c2ccccc2)cc1`, the Potency was inconclusive: 16.4 µM [activator, single point]. With `O=C(CCN1CCN(C/C=C/c2ccccc2)CC1)Nc1ccc(Cl)cc1` the Potency was inconclusive: 29.1 µM [activator, single point]. In the case of `CCCC(=O)NC(c1ccco1)c1cc(Cl)c2cccnc2c1O` (stereo unspecified), the Potency is reported as inconclusive: 25.9 µM [activator, single point]. For `CC(=O)C1=C(C)NC(SCC(=O)c2ccc(Cl)c(Cl)c2)=C(C#N)C1c1ccco1` (stereo unspecified), the Potency was active: 11.6 µM. With `Cn1cc([N+](=O)[O-])c(C(=O)Nc2ccc(C(=O)N3CCCCC3)cc2)n1` the Potency was active: 14.6 µM. For `Cc1c(Cl)cccc1NC(=S)N1CCCN(Cc2ccccc2F)C1`, the Potency was inconclusive: 29.1 µM [activator, single point].
